{"source": "PubChem BioAssay AID1671195 (Yale University, 2021)", "test": "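Knockdowns that increase or decrease uptake of fluorescent LDL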 (primary screen)", "cell system": "human Huh7 hepatoma cells", "reagents": "siRNA pool against human genes, 18 nM", "duration": "about 2 to 2.5 days of knockdown, then 8 h LDL uptake", "challenge": "DiI-labelled LDL at 30 µg/ml for 8 h, in lipoprotein-deficient serum medium", "measured": "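Fluorescent LDL signal imaged in cells, scaled to the plate median, robust z-score for each replicate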", "direction": "robust z-score: higher = more LDL uptake after knockdown", "active means": "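Active when two or more replicates show a robust z-score above 2 or below -2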", "note": "Shown is one part, drawn at random, of about 22,000 deposited reagents. About 1,510 of them (6.9%) were called active. 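Active includes knockdowns raising or lowering LDL uptake; positive z-scores mean more uptake, negative mean less.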"}
{"gene symbol": "SEL1L2 (GeneID 80343)", "robust z-score, replicate 1": 0.563, "robust z-score, replicate 2": 0.791, "robust z-score, replicate 3": 0.414, "Call": "inactive"}
{"gene symbol": "SCYL2 (GeneID 55681)", "robust z-score, replicate 1": 1.91, "robust z-score, replicate 2": 1.83, "robust z-score, replicate 3": 2.27, "Call": "active"}
{"gene symbol": "CDYL (GeneID 9425)", "robust z-score, replicate 1": 0.363, "robust z-score, replicate 2": 0.23, "robust z-score, replicate 3": 0.0358, "Call": "inactive"}
{"gene symbol": "CSMD2 (GeneID 114784)", "robust z-score, replicate 1": -0.263, "robust z-score, replicate 2": -0.963, "robust z-score, replicate 3": -1.08, "Call": "inactive"}
{"gene symbol": "MTUS2 (GeneID 23281)", "robust z-score, replicate 1": 0.507, "robust z-score, replicate 2": -1.63, "robust z-score, replicate 3": -0.0548, "Call": "inactive"}
{"gene symbol": "DFFB (GeneID 1677)", "robust z-score, replicate 1": -0.125, "robust z-score, replicate 2": -0.687, "robust z-score, replicate 3": -0.819, "Call": "inactive"}
{"gene symbol": "MNX1 (GeneID 3110)", "robust z-score, replicate 1": -0.875, "robust z-score, replicate 2": -1.07, "robust z-score, replicate 3": -1.92, "Call": "inactive"}
{"gene symbol": "ALX4 (GeneID 60529)", "robust z-score, replicate 1": -0.275, "robust z-score, replicate 2": -0.95, "robust z-score, replicate 3": -0.37, "Call": "inactive"}
{"gene symbol": "KCNIP4 (GeneID 80333)", "robust z-score, replicate 1": -1.61, "robust z-score, replicate 2": -1.73, "robust z-score, replicate 3": -1.14, "Call": "inactive"}
{"gene symbol": "RNF19A (GeneID 25897)", "robust z-score, replicate 1": 0.162, "robust z-score, replicate 2": 0.257, "robust z-score, replicate 3": -0.125, "Call": "inactive"}
{"gene symbol": "RBMS3 (GeneID 27303)", "robust z-score, replicate 1": -0.297, "robust z-score, replicate 2": 0.254, "robust z-score, replicate 3": -0.327, "Call": "inactive"}
{"gene symbol": "SLC6A20 (GeneID 54716)", "robust z-score, replicate 1": 0.929, "robust z-score, replicate 2": 1.57, "robust z-score, replicate 3": 0.278, "Call": "inactive"}
{"gene symbol": "CD163 (GeneID 9332)", "robust z-score, replicate 1": -2.17, "robust z-score, replicate 2": -2.27, "robust z-score, replicate 3": -2.1, "Call": "active"}
{"gene symbol": "GNPDA2 (GeneID 132789)", "robust z-score, replicate 1": -0.0255, "robust z-score, replicate 2": 0.885, "robust z-score, replicate 3": -0.225, "Call": "inactive"}
{"gene symbol": "LINC01344 (GeneID 400799)", "robust z-score, replicate 1": 0.256, "robust z-score, replicate 2": -0.0937, "robust z-score, replicate 3": 0.029, "Call": "inactive"}
{"gene symbol": "LOC392749 (retired record) (GeneID 392749)", "robust z-score, replicate 1": 1.11, "robust z-score, replicate 2": 2.16, "robust z-score, replicate 3": 1.55, "Call": "inactive"}

Targets above whose gene name begins with L or l:
{"gene symbol": "LINC01344 (GeneID 400799)", "robust z-score, replicate 1": 0.256, "robust z-score, replicate 2": -0.0937, "robust z-score, replicate 3": 0.029, "Call": "inactive"}
{"gene symbol": "LOC392749 (retired record) (GeneID 392749)", "robust z-score, replicate 1": 1.11, "robust z-score, replicate 2": 2.16, "robust z-score, replicate 3": 1.55, "Call": "inactive"}
